These are yes or no findings as the source states them, for the method shown. Some results given as binding are weak or reduced against the parent protein; the word gives no strength.

The target of the first assay is T1, FcεRI-IgG (UniProt P12319 26-205).
T1 construct: extracellular domain; Produced from CHO cells (Genentech); also called FcεRI-Fc; bivalent fusion protein of the extracellular domain of FcεRI and the Fc domain of IgG; not shown: Fc domain of IgG
T1 sequence (looked up): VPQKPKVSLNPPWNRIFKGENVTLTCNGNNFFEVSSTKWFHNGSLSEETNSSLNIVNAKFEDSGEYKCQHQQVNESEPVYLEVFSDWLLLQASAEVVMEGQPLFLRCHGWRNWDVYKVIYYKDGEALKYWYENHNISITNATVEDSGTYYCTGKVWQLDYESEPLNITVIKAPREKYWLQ
Kind of assay: p8 phage clone, phage ELISA on FcεRI-IgG.
With QVCPAICYS (peptide, not shown: large carriers), the binding entry was “binds”.

Take LVCPDLCYG (peptide, not shown: large carriers): the binding entry is “binds”.

Consider VECPAVCYV (peptide, not shown: large carriers), for which the binding result is “binds”.

Consider AICPALCYE (peptide, not shown: large carriers), for which the binding entry is given as “binds”.

Turning to LNCSQPCQR (peptide, not shown: large carriers), the binding entry was “binds”.

In the case of ALCPEVCYV (peptide, not shown: large carriers), the binding entry is listed as “binds”.

As for AECPLGCYA (peptide, not shown: large carriers), the binding entry is listed as “binds”.

On to SVCPSLCYV (peptide, not shown: large carriers), for which the binding entry is “binds”.

As for AECPIMCYS (peptide, not shown: large carriers), the binding entry is reported as “binds”.

The next assay concerns the target extracellular domain of the alpha subunit of the human FcεRI (aa 1-176) (human) (UniProt P12319). Kind of assay: competitive phage ELISA on FcεRI (FIG. 1). In general terms: ELISA stands for enzyme-linked immunosorbent assay.
For the molecule IVCPRLCYVGGKALCPDVCYVGGGSGGGGSGSGDY (peptide, not shown: large carriers) [IGE120-phage …], the binding result was “binds”.

A further assay has as its target T1, FcεRI-IgG. Kind of assay: g8 phage clones selected on immobilized FcεRI-IgG.
For TGEACVEGPGAWVCCLEP (peptide, not shown: large carriers) [g8a.20 phage clone …], the binding result is on record as “binds”.

Regarding QEWTCVEGPRGWECIAVL (peptide, not shown: large carriers) [g8a.18 phage clone …], the binding entry was “binds”.

Values taken from patent US7101851 (dated 2006).
